These are yes or no findings as the source states them, for the method shown. For part of these data: In cells and extracts the contact can be indirect. Some binding calls cover weakened binding; strength is not graded here. Sequences can lack the tags named with a protein.
Tests used:
[1] = biological target: T1, MOB1A (pGBKT7, BD fusion) (Arabidopsis thaliana) (UniProt Q9FHI1); assay: two-hybrid; Gal4 system (Clontech), yeast strain AH109; growth on SD/-Trp-Leu-His, 3-7 days at 28 °C
T1 sequence: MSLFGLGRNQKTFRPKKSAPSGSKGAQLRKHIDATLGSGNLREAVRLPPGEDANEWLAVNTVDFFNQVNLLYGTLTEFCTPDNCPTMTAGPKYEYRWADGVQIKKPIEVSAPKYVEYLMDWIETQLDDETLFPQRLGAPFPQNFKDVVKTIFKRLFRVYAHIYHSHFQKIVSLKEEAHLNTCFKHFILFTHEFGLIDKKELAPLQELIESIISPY

[2] = biological target: T2, MOB1B (pGBKT7, BD fusion) (Arabidopsis thaliana) (UniProt Q8GYX0); assay: as above
T2 sequence: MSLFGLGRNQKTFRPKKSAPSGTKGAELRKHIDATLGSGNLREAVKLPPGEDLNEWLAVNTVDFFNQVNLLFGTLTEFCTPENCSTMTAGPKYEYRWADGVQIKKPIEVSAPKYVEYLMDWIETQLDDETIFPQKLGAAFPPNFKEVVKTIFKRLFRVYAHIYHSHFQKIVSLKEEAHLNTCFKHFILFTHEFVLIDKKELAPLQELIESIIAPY

[3] = biological target: T3, MOB1A-NLuc (Arabidopsis thaliana) (UniProt Q9FHI1); assay: split reporter; firefly luciferase complementation imaging (LCI) in N. benthamiana leaves, 2-4 days after infiltration; 1 mM D-luciferin, CCD imaging
T3 sequence: T1 sequence

[4] = biological target: T4, MOB1B-NLuc (Arabidopsis thaliana) (UniProt Q8GYX0); assay: as above
T4 sequence: T2 sequence

B1: MAP3Kε1 (pGADT7, AD fusion) (protein, UniProt Q9LJD8 1-1368)
chain: MARQMTSSQFHKSKTLDNKYMLGDEIGKGAYGRVYKGLDLENGDFVAIKQVSLENIVQEDLNTIMQEIDLLKNLNHKNIVKYLGSSKTKTHLHIILEYVENGSLANIIKPNKFGPFPESLVAVYIAQVLEGLVYLHEQGVIHRDIKGANILTTKEGLVKLADFGVATKLNEADVNTHSVVGTPYWMAPEVIEMSGVCAASDIWSVGCTVIELLTCVPPYYDLQPMPALFRIVQDDNPPIPDSLSPDITDFLRQCFKKDSRQRPDAKTLLSHPWIRNSRRALQSSLRHSGTIKYMKEATASSEKDDEGSQDAAESLSGENVGISKTDSKSKLPLVGVSSFRSEKDQSTPSDLGEEGTDNSEDDIMSDQVPTLSIHEKSSDAKGTPQDVSDFHGKSERGETPENLVTETSEARKNTSAIKHVGKELSIPVDQTSHSFGRKGEERGIRKAVKTPSSVSGNELARFSDPPGDASLHDLFHPLDKVSEGKPNEASTSMPTSNVNQGDSPVADGGKNDLATKLRATIAQKQMEGETGHSNDGGDLFRLMMGVLKDDVIDIDGLVFDEKVPAENLFPLQAVEFSRLVSSLRPDESEDAIVSSCQKLVAMFRQRPEQKVVFVTQHGFLPLMDLLDIPKSRVICAVLQLINEIIKDNTDFQENACLVGLIPVVMSFAGPERDRSREIRKEAAYFLQQLCQSSPLTLQMFIACRGIPVLVGFLEADYAKYREMVHLAIDGMWQVFKLKRSTPRNDFCRIAAKNGILLRLINTLYSLNEATRLASISGGLDGQAPRVRSGQLDPNNPIFGQNETSSLSMIDQPDVLKTRHGGGEEPSHASTSNSQRSDVHQPDALHPDGDKPRVSSVAPDASTSGTEDVRQQHRISLSANRTSTDKLQKLAEGASNGFPVTQTEQVRPLLSLLDKEPPSRHYSGQLDYVKHITGIERHESRLPLLHGSNEKKNNGDLDFLMAEFAEVSGRGKENGSLDTTTRYPSKTMTKKVLAIEGVASTSGIASQTASGVLSGSGVLNARPGSATSSGLLAHMVSTLSADVAREYLEKVADLLLEFARADTTVKSYMCSQSLLSRLFQMFNRVEPPILLKILECTNHLSTDPNCLENLQRADAIKHLIPNLELKDGHLVYQIHHEVLSALFNLCKINKRRQEQAAENGIIPHLMLFIMSDSPLKQYALPLLCDMAHASRNSREQLRAHGGLDVYLSLLDDEYWSVIALDSIAVCLAQDNDNRKVEQALLKQDAIQKLVDFFQSCPERHFVHILEPFLKIITKSYRINKTLAVNGLTPLLISRLDHQDAIARLNLLKLIKAVYEHHPRPKQLIVENDLPQKLQNLIEERRDGQRSGGQVLVKQMATSLLKALHINTIL
Q: Which binding [1] does the source give for B1 here?
A: binds

Q: And the binding [2]?
A: binds

B2: CLuc-MAP3Kε2 (protein, UniProt Q9SFB6 1-1367)
chain: MARQMTSSQFHKSKTLDNKYMLGDEIGKGAYGRVYIGLDLENGDFVAIKQVSLENIGQEDLNTIMQEIDLLKNLNHKNIVKYLGSLKTKTHLHIILEYVENGSLANIIKPNKFGPFPESLVTVYIAQVLEGLVYLHEQGVIHRDIKGANILTTKEGLVKLADFGVATKLNEADFNTHSVVGTPYWMAPEVIELSGVCAASDIWSVGCTIIELLTCVPPYYDLQPMPALYRIVQDDTPPIPDSLSPDITDFLRLCFKKDSRQRPDAKTLLSHPWIRNSRRALRSSLRHSGTIRYMKETDSSSEKDAEGSQEVVESVSAEKVEVTKTNSKSKLPVIGGASFRSEKDQSSPSDLGEEGTDSEDDINSDQGPTLSMHDKSSRQSGTCSISSDAKGTSQDVLENHEKYDRDEIPGNLETEASEGRRNTLATKLVGKEYSIQSSHSFSQKGEDGLRKAVKTPSSFGGNELTRFSDPPGDASLHDLFHPLDKVPEGKTNEASTSTPTANVNQGDSPVADGGKNDLATKLRARIAQKQMEGETGHSQDGGDLFRLMMGVLKDDVLNIDDLVFDEKVPPENLFPLQAVEFSRLVSSLRPDESEDAIVTSSLKLVAMFRQRPGQKAVFVTQNGFLPLMDLLDIPKSRVICAVLQLINEIVKDNTDFLENACLVGLIPLVMSFAGFERDRSREIRKEAAYFLQQLCQSSPLTLQMFISCRGIPVLVGFLEADYAKHREMVHLAIDGMWQVFKLKKSTSRNDFCRIAAKNGILLRLVNTLYSLSEATRLASISGDALILDGQTPRARSGQLDPNNPIFSQRETSPSVIDHPDGLKTRNGGGEEPSHALTSNSQSSDVHQPDALHPDGDRPRLSSVVADATEDVIQQHRISLSANRTSTDKLQKLAEGASNGFPVTQPDQVRPLLSLLEKEPPSRKISGQLDYVKHIAGIERHESRLPLLYASDEKKTNGDLEFIMAEFAEVSGRGKENGNLDTAPRYSSKTMTKKVMAIERVASTCGIASQTASGVLSGSGVLNARPGSTTSSGLLAHALSADVSMDYLEKVADLLLEFARAETTVKSYMCSQSLLSRLFQMFNRVEPPILLKILECTNHLSTDPNCLENLQRADAIKQLIPNLELKEGPLVYQIHHEVLSALFNLCKINKRRQEQAAENGIIPHLMLFVMSDSPLKQYALPLLCDMAHASRNSREQLRAHGGLDVYLSLLDDEYWSVIALDSIAVCLAQDVDQKVEQAFLKKDAIQKLVNFFQNCPERHFVHILEPFLKIITKSSSINKTLALNGLTPLLIARLDHQDAIARLNLLKLIKAVYEKHPKPKQLIVENDLPQKLQNLIEERRDGQRSGGQVLVKQMATSLLKALHINTIL
Q: How did the binding [3] turn out when B2 was run?
A: binds

Q: What about the binding [4] of the same binder?
A: binds

B3: MAP3Kε2 (pGADT7, AD fusion) (protein, UniProt Q9SFB6 1-1367)
chain: B2 chain
Q: With B3 as the binder, how does the binding [1] read?
A: binds

Q: What about the binding [2] of the same binder?
A: binds

Reference: publication PMC8910673
